{"source": "patent US6642365B1", "about": "“Anti-(retro)viral conjugates of saccharides and acetamidino or guanidino compounds” (Yeda Research and Development Co. Ltd., priority 2001, dated 2003)", "key": {"[1]": {"test_system": "HIV Rev-RRE interaction", "settings": "cited from earlier work; for concentration inhibiting Rev-RRE interaction: in vitro"}, "[2]": {"target": "Tat-TAR interaction", "test": "Gel-shift inhibition of Tat R52 peptide binding to TAR RNA", "set-up": "species or system HIV-1", "settings": "TAR RNA 6 nM; 60 nM Tat R52; read-out: CI50 (the source's name)", "procedure": "The model Tat peptide (R52: […]) was prepared by the Weizmann Institute Chemical Services and was purified by reverse phase HPLC (C-18) (Lapidot et al., 1995). A 31-nt TAR RNA fragment (5′-GGCCAGAUCUGAGCCUGGGAGCUCUCUGGCC-3′) containing the sequence 18-44 of the HIV LTR (Aboul-Ela et al., 1995) was transcribed in vitro by T7 RNA polymerase (Promega) from a synthetic single strand DNA template containing the 17 base double-stranded T7 promoter (both DNA oligonucleotides were prepared by the Weizmann Institute Chemical Services). […] Purified RNA was dissolved in diethyl pyrocarbonate-treated water (DEPC water), its concentration was determined by UV absorption at 260 nm and the specific radioactivity was determined by scintillation counting on a LS 1701 “Bruker” counter.\nTo study the affinity of the test compounds to TAR, gel-shift and gel-shift inhibition experiments were performed. […] Quantitations were obtained by optical densitometry of films. Alternatively, results were visualized by exposing the wet gels to Fuji phosphoimager plates, which were read on a “Storm 820” (Molecular Dynamics) phosphoimager. […]\nBinding inhibition by the monosaccharide derivatives was measured by adding several concentrations of each compound to reaction mixtures containing 60 nM Tat 52 and 6 nM ^32P TAR, attaining 100% binding of Tat TAR in the absence of inhibitors (Lapidot et al., 1995)."}, "[3]": {"test_system": "equine infectious anemia virus (EIAV)", "test": "Antiviral activity in EIAV-infected ED fibroblasts", "type": "cell-based", "settings": "12.5-50 μM", "procedure": "Both equine dermal fibroblasts (ED) and Equine Infectious Anemia Virus (EIAV), Wyoming isolate (Malmquist et al., 1973) were gifts from Profs. A. Yaniv and A. Gazit, from the Sackler Medical School of the Tel-Aviv University, Israel. ED cells were plated on plastic 6-well tissue culture plates (Nunclone) at density of […] per well in 2 ml of DMEM/10% FCS (fetal calf serum). The medium was removed after 12-20 hours and the cells were inoculated for 2 hours with 0.5 ml DMEM/10% FCS containing 5×10^6 pfu (plaque forming units) of EIAV and 10 μg/ml of polybrene (hexadimetrine bromide, Sigma) (Carpenter and Chesebro, 1989). Following the incubation, another 2.5 ml of DMEM/10% FCS was added to each well. […] Every […], 1.2 ml samples of the medium were collected and replaced with same amount of medium, containing radioactive uridine and the tested. The samples were clarified from cell debris by spinning at 12000 rpm for 5 minutes on the Eppendorf centrifuge. […] The supernatants were carefully discarded and the pellet was resuspended in 200 μl of 1% SDS/5% Tritone X-100, mixed with 1 ml Ultima Gold scintillation liquid (Packard) and counted on LS 1701 Bruker scintillation counter. […] Development of the cytopathic effect (cpe) in the infected ED cells was monitored by light microscopy. […]"}}, "note": "For some assays here: At least one structure is not confirmed: it was looked up by name or label, or the drawing left a doubt. Some entries share one result that the patent states for a list of compounds.", "data": [{"compound": "NC[C@@H]1O[C@H](O[C@H]2[C@@H](O)[C@H](O[C@@H]3[C@@H](O)[C@H](N)C[C@H](N)[C@H]3O[C@H]3O[C@H](CN)[C@@H](O)[C@H](O)[C@H]3N)O[C@@H]2CO)[C@H](N)[C@@H](O)[C@@H]1O", "note": "[Neomycin B, reference compound]", "values": [{"measurement": "concentration inhibiting Rev-RRE interaction", "setting": "[1]", "value": "1 to 10", "unit": "µM"}]}, {"compound": "CO[C@@H]1O[C@H](CC(N)=O)C(O)[C@H](O)[C@@H]1O", "note": "(stereo partly drawn) [compound 8, Methyl 6-deoxy-α-D-mannoheptopyranuronic acid amide]", "values": [{"measurement": "IC50", "setting": "[2]", "value": "> 50", "unit": "mM"}]}, {"compound": "NC[C@H]1O[C@H](O[C@H]2[C@H](O)[C@@H](O[C@H]3O[C@H](CO)[C@@H](O)[C@H](N)[C@H]3O)[C@H](N)C[C@@H]2N)[C@H](O)[C@@H](O)[C@@H]1O", "note": "[kanamycin]", "values": [{"measurement": "inhibition of Rev-RRE interaction", "setting": "[1]; at 100 μM", "value": "do not display any inhibition"}]}, {"compound": "NC[C@H]1O[C@H](O[C@H]2[C@H](O)[C@@H](O[C@H]3O[C@H](CO)[C@@H](O)[C@H](N)[C@H]3O)[C@H](N)C[C@@H]2N)[C@H](N)C[C@@H]1O", "note": "[tobramycin]", "values": [{"measurement": "concentration inhibiting Rev-RRE interaction", "setting": "[1]", "value": "1 to 10", "unit": "µM"}]}, {"compound": "Triargininamido-gentamicin conjugate [R3G]", "values": [{"measurement": "inhibition of the viral growth", "setting": "[3]", "value": "3-5 fold"}]}]}
